Data on one molecule can be found in article PMC9049863 (RSC Advances, 2020).

Assay [1] concerns Burkitt's lymphoma B cells (Ramos). The assay is described as follows: Cytotoxicity against Ramos, resazurin reduction assay. The assay is classed as cell-based. Conditions: Homo sapiens, 72 h, read-out: IC50, cell viability, Ramos. A general note: Alamar Blue is a resazurin reagent that responds to reducing activity.
The test system of assay [2] is adult lymphoblastic leukemia T cells (Jurkat J16). The assay is described as follows: Cytotoxicity against Jurkat J16, resazurin reduction assay. The settings on record: Homo sapiens, 72 h, read-out: IC50, cell viability, Jurkat J16. In kind it is cell-based.

Broadly, the IC50 is the concentration needed to halve the response being measured. As to `CN[C@@H]1C[C@H]2O[C@@](C)([C@@H]1OC)n1c3ccccc3c3c4c(c5c6ccccc6n2c5c31)C(=O)NC4` [Staurosporine], the IC50 in assay [1] and in assay [2] was 2500 nM in each case.
